Results taken from publication PMC10605370 (Biomolecules, 2023).
These are yes or no findings as the source states them, for the method shown. Binding seen in cells or lysates may run through a third protein. Some binding calls cover weakened binding; strength is not graded here.

Sequences of proteins named here, by UniProt entry; tags and fusion partners are left off. A change or cut given only in a name is not applied to a line headed by its entry.
UniProt P14416: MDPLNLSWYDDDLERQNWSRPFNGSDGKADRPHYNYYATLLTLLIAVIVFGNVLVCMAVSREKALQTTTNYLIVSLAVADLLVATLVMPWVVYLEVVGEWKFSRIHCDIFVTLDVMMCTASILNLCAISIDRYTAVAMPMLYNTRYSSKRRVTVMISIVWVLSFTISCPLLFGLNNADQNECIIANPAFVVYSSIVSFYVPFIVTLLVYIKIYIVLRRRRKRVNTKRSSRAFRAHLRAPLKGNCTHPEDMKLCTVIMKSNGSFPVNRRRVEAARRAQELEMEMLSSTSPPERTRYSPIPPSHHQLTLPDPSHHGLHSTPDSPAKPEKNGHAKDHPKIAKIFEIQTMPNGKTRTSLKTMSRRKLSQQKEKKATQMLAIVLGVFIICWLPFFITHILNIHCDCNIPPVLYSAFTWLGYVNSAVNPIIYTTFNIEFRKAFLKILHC
UniProt P61169: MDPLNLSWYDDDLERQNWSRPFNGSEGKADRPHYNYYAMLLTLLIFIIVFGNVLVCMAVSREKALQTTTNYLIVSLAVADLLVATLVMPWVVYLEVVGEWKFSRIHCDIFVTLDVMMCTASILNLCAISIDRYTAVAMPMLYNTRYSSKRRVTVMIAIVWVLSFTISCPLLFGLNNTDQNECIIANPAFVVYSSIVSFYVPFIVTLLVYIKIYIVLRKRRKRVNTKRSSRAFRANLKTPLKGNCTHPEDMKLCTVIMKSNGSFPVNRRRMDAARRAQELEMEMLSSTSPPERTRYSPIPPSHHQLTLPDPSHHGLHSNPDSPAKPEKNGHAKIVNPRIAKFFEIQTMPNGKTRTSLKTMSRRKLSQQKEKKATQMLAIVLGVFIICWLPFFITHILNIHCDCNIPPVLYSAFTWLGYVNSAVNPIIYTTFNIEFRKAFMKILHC
UniProt P25098: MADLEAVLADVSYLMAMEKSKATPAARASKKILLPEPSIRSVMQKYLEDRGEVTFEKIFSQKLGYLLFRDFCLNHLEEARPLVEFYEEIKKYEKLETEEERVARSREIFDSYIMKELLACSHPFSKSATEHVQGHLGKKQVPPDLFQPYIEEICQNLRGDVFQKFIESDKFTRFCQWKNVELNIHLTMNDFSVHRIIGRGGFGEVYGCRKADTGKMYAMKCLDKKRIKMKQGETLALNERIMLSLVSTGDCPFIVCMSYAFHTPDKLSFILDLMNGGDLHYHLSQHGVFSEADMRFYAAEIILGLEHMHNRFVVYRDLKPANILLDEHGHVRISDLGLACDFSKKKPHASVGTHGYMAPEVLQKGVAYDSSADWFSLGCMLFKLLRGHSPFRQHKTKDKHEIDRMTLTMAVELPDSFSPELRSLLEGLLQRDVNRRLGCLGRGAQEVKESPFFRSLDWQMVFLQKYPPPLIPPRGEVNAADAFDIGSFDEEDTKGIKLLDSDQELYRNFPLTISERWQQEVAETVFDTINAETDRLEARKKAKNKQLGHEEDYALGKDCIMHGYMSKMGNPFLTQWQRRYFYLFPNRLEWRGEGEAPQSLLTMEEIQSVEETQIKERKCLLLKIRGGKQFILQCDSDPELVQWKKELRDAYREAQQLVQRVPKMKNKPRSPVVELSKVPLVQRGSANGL
UniProt P32121: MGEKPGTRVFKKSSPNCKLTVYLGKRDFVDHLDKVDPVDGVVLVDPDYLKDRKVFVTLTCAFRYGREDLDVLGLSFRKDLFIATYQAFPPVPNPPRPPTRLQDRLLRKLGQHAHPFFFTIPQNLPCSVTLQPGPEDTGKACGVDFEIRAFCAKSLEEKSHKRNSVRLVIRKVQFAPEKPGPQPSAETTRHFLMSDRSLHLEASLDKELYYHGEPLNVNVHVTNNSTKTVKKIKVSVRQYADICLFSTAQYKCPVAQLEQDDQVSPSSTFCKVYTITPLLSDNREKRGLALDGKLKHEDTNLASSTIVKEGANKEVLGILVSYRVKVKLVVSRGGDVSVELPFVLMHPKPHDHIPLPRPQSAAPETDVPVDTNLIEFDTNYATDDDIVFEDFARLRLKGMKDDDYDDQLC

Legend:
[1] = molecular target: human D2 dopamine receptor, long isoform, fused to Rluc8 (D2R-Rluc8) (human) (UniProt P14416); assay: FRET or BRET; GRK2 recruitment BRET in live HEK293 cells transfected with D2R-Rluc8 (donor) and GRK2-rGFP (acceptor), with or without compound 101; DPBS with 200 µM sodium metabisulphite, room temperature, 2 µM Prolume Purple; dopamine for 5 min
[2] = molecular target: rat D2 dopamine receptor, long isoform, wild type, fused to Rluc8 (WT D2R-Rluc8) (rat) (UniProt P61169); assay: as above
[3] = molecular target: rat D2 dopamine receptor, long isoform, wild type, fused to Rluc8 (WT D2R-Rluc8) (rat) (UniProt P61169); assay: FRET or BRET; β-arrestin2 recruitment BRET in live HEK293 cells (parental or GRK knock-out lines) transfected with D2R-Rluc8 (donor) and β-arrestin2-mVenus (acceptor), with or without GRK2, GRK3, GRK5, GRK6, K220R GRK2 or pcDNA, and with or without compound 101; DPBS with 200 µM sodium metabisulphite, room temperature, 5 µM coelenterazine h; dopamine for 10 min (20 min in Figure 7)

Substance	binding [1]	binding [2]	binding [3]
GRK2-rGFP (from UniProt P25098 1-689) (enzyme)	binds	binds	–
β-arrestin2-mVenus (from UniProt P32121 1-409)	–	–	binds
